Data source: PubChem BioAssay AID1259308 (NCATS, 2017)

Purpose: 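Genes whose loss raises luciferase production in HEK293 cells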 (primary screen)
Cells: human HEK293 embryonic kidney cells stably expressing firefly luciferase (HEK-CMV-Luc2-Hygro)
Reagent: single siRNA against human genes, 0.8 pmol siRNA per well
Duration: 72 h
Detection: 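Reporter luminescence and viable-cell signal on separate replicate plates, given as percent of non-targeting control and median/MAD z-scores, plus per-cell luciferase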
Scale: total luciferase, z-score: higher = more reporter protein produced
Rule for the call: 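An siRNA counts as active if its total luciferase robust z-score exceeds 3; genes with two or more such siRNAs out of three were retested with fresh siRNAs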
Meaning of the calls: active = raised luciferase; inactive = no rise
Shown is a random part of about 59,000 reagents tested. About 1,510 of them (2.6%) count as active. 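Calls use total luciferase alone and ignore viability, so some active siRNAs may act by altering cell number.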 Unmarked entries are inactive. The numbers tell different reagents against one gene apart. Further read-outs or replicates are left out here.

Knock-down of LOC105372990 #1 gave: total luciferase, z-score -1.01.
LOC105372990 #2 scored total luciferase, z-score 0.129.
After knock-down of LOC105372990 #3, the screen gave total luciferase, z-score 0.246.
For REC8 #1 the deposit lists total luciferase, z-score -0.0178.
Knock-down of REC8 #2 resulted in: total luciferase, z-score 1.16.
For REC8 #3, the entry reads total luciferase, z-score -0.326.
With knock-down of OAZ2 #1 the results were total luciferase, z-score 0.657.
For OAZ2 #2, the entry reads total luciferase, z-score 0.68.
For OAZ2 #3, the entry reads total luciferase, z-score 0.782.
Against TMEM64 #1, the entry reads total luciferase, z-score -0.962.
Silencing of TMEM64 #2 came out at: total luciferase, z-score -2.01.
For TMEM64 #3 the deposit lists total luciferase, z-score 0.263.
Silencing of PCDHGB6 #1 came out at: total luciferase, z-score 1.28.
PCDHGB6 #2 gave total luciferase, z-score 0.17.
Depletion of PCDHGB6 #3 came out at: total luciferase, z-score 0.133.
After knock-down of THOP1 #1 the results were total luciferase, z-score 0.388.
After knock-down of THOP1 #2, the screen gave total luciferase, z-score 0.669.
Knock-down of THOP1 #3 gave: total luciferase, z-score 1.54.

Quoted from above (2 entries):
TMEM64 #3 | total luciferase, z-score = 0.263
PCDHGB6 #1 | total luciferase, z-score = 1.28

Next entries follow:
SYNGR4 #1 gave total luciferase, z-score -1.19.
Depletion of SYNGR4 #2 came out at: total luciferase, z-score 1.38.
With knock-down of SYNGR4 #3, the record shows total luciferase, z-score 1.32.
Against USO1 #1, the entry reads total luciferase, z-score 0.276.
For USO1 #2, the values are total luciferase, z-score -1.17.
For USO1 #3, the values are total luciferase, z-score 0.229.
U2AF2 #1 gave total luciferase, z-score 4.36 (active).
U2AF2 #2 showed total luciferase, z-score 2.18.
Silencing of U2AF2 #3 came out at: total luciferase, z-score 3.61 (active).
MAPKAPK2 #1 scored total luciferase, z-score 0.252.
With knock-down of MAPKAPK2 #2, the screen gave total luciferase, z-score -0.792.
MAPKAPK2 #3 scored total luciferase, z-score 1.67.
With knock-down of MYO1A #1 the results were total luciferase, z-score -1.31.
MYO1A #2 gave total luciferase, z-score -0.263.
MYO1A #3 gave total luciferase, z-score -0.674.
